Source: PMC3440356
Results are given in words; binding and its absence hold for the method and conditions named. For some assays here: Binding seen in cells or lysates may run through a third protein. Tags and fused reporters may be left off the sequences shown.

What was measured:
[1] = target: T1, GST-fused Dbl PH domain (human) (UniProt P10911); assay: pull-down; in vitro binding assay: GST-tagged proteins immobilised on glutathione-sepharose beads, incubated with soluble thrombin-cleaved NT-C2β and Grb2, 2 h at 4°C, 1% Brij 96 buffer (also Triton 1%); immunoblot; both purified
T1 sequence: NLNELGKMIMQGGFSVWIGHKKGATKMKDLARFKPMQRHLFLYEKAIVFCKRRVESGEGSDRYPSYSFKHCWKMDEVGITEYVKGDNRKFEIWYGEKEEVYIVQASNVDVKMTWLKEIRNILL

[2] = target: T1, GST-fused Dbl PH domain (human); assay: pull-down; COS-1 cells co-transfected with PI3KC2β and GST-tagged Dbl domains; lysates (Triton 1%) incubated with glutathione-sepharose beads 2 h at 4°C; immunoblot

| binding [1] | binding [2] | Substance |
| --- | --- | --- |
| no binding | – | soluble N-terminal region of PI3KC2β (domain or fragment) |
| – | no binding | endogenous Grb2 (COS-1) |
